In PMC9653720 one finds binding data, which are given here for 2 substances.

By UniProt entry, the sequences of proteins in these tests, tags left out.
UniProt Q8TDY2: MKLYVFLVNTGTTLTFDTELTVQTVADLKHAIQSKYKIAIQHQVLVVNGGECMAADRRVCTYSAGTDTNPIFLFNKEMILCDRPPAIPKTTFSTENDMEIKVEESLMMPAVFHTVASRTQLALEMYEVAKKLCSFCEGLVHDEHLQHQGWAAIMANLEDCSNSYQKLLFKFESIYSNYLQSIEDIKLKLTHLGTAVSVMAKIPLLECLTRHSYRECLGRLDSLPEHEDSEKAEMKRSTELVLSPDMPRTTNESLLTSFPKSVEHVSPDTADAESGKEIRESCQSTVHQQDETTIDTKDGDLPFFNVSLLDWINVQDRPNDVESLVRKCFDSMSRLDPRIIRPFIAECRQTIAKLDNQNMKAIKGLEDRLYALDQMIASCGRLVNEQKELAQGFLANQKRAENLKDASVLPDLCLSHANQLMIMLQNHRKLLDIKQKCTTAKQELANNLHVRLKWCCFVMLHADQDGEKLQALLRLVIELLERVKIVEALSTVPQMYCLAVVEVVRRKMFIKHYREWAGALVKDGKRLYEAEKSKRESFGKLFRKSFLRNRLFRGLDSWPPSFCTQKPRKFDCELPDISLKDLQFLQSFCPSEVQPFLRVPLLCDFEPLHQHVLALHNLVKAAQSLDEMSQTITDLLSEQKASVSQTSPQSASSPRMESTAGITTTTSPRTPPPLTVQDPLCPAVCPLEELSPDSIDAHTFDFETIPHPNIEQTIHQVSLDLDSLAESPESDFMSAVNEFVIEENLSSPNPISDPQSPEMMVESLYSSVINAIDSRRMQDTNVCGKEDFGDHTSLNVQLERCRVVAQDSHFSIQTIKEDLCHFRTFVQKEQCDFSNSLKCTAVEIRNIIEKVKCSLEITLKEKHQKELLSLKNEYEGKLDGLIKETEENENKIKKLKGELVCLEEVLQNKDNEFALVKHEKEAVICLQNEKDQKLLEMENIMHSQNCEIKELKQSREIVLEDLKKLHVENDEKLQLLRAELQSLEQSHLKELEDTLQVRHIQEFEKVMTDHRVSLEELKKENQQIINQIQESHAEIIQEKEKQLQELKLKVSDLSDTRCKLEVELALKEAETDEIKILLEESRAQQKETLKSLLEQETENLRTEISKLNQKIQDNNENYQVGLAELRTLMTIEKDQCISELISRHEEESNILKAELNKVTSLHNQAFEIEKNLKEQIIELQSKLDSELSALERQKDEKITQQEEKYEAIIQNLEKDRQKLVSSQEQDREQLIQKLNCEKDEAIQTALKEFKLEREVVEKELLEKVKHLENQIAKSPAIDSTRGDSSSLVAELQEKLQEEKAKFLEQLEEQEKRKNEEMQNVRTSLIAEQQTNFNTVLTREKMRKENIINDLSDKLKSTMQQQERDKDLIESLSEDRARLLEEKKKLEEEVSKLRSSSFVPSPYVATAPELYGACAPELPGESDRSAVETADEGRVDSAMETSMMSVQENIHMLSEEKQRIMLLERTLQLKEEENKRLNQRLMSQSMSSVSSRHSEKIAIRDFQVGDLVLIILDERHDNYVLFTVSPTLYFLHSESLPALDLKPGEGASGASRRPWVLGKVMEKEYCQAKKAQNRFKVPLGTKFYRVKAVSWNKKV
UniProt Q9BYW2: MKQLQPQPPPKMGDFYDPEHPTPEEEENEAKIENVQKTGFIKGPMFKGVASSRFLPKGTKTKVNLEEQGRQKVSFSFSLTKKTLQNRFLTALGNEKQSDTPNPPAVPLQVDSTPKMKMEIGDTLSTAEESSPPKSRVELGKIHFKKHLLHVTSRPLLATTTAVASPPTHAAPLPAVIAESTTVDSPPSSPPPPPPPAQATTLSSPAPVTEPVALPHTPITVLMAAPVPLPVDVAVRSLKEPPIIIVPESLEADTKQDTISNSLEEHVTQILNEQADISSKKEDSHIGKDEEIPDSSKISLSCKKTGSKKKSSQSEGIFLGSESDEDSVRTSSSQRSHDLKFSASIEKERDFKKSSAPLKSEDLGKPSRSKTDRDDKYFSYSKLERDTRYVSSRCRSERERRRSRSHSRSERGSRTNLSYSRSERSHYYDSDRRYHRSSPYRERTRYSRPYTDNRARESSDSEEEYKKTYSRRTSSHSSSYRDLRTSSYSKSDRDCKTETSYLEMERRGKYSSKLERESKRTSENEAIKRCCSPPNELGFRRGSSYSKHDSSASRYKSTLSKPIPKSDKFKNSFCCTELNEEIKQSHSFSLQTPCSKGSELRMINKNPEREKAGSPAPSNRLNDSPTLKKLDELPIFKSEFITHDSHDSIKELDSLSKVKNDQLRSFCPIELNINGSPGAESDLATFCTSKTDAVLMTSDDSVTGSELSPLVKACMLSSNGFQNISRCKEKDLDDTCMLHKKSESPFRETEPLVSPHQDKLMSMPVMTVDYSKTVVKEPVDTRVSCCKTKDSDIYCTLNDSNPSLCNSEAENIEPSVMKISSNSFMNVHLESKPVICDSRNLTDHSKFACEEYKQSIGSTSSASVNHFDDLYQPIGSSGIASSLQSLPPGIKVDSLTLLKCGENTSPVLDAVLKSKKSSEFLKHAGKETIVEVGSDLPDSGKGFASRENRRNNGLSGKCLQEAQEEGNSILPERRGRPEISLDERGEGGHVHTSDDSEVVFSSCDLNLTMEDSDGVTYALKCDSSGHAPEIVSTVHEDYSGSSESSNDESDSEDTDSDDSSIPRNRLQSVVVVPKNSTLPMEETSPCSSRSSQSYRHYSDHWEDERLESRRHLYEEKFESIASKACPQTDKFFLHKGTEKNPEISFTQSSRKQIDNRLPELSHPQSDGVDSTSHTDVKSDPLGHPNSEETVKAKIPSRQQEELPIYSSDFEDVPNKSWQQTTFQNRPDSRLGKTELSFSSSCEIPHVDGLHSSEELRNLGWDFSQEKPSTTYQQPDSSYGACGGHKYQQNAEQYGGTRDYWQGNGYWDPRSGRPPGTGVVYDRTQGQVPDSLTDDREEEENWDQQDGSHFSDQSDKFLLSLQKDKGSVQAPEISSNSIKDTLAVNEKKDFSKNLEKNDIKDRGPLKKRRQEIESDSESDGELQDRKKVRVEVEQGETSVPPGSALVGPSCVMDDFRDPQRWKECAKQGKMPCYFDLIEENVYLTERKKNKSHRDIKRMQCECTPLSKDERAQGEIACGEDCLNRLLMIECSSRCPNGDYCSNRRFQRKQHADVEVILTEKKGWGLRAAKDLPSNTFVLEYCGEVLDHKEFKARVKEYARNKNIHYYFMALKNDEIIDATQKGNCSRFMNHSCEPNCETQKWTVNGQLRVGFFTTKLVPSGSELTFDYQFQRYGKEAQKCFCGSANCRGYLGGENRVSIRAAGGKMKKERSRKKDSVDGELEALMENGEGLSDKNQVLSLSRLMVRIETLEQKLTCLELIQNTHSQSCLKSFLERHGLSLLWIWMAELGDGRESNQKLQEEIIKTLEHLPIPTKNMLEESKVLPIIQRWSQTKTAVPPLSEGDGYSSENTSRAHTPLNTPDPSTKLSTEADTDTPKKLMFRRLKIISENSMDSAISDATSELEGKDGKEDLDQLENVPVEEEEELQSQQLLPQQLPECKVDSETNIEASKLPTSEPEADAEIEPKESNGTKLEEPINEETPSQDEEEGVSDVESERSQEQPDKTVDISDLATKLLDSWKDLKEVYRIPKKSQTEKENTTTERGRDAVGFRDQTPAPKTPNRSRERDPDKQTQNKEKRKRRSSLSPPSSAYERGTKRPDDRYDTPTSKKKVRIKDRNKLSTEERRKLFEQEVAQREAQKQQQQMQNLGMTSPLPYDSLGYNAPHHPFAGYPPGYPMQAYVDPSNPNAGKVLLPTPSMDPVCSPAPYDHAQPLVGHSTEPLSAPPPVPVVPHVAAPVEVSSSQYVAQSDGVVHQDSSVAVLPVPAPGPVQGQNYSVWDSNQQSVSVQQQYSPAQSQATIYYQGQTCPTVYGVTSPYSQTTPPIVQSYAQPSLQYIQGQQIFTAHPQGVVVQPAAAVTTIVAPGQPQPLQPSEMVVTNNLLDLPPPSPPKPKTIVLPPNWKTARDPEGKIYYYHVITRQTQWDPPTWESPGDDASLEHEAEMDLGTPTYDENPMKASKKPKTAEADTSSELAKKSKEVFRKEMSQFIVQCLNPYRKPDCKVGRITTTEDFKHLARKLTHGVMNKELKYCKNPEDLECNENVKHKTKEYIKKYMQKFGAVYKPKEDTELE
UniProt P19474: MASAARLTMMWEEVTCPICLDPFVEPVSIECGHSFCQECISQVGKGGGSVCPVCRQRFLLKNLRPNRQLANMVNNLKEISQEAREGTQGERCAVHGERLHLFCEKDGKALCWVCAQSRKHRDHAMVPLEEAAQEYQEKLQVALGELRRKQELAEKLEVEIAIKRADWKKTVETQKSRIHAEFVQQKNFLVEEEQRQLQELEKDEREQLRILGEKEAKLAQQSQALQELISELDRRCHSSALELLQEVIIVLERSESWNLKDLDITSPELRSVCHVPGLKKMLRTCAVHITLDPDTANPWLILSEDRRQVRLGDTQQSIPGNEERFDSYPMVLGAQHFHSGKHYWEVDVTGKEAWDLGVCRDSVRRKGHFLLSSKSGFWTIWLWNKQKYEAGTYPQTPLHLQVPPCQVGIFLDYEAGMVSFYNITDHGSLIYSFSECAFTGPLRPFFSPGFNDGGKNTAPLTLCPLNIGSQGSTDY

The target of assay [1] is focal adhesion kinase family interacting protein of 200 kD (FIP200), endogenous (human (endogenous in HEK293)) (UniProt Q8TDY2). Description: co-IP; endogenous proteins; cells lysed in NP-40 lysis buffer, lysate with protein G-Sepharose beads and anti-FIP200 or anti-Trim21 antibody at 4 °C overnight, four washes, Western blot.
The target of a further assay is flag-SETD2 (human) (UniProt Q9BYW2). Description: co-IP; flag-SETD2 or flag-tagged SETD2 fragments overexpressed in HEK293, pulled down by anti-flag antibody; endogenous FIP200 detected by immunoblot.
Assay [2] deals with Trim21, endogenous (human (endogenous in HEK293 or HeLa, cell line not stated)) (UniProt P19474). Description: co-IP; endogenous proteins; cells lysed in NP-40 lysis buffer, lysate with protein G-Sepharose beads and anti-FIP200 or anti-Trim21 antibody at 4 °C overnight, four washes, Western blot.

Results are given in words; binding and its absence hold for the method and conditions named. In cells and extracts the contact can be indirect. Some entries that bind do so weakly or less than the wild type.

With “Trim21, endogenous (from UniProt P19474 1-475) (enzyme)”, the binding result in assay [1] is “binds”.

Take “focal adhesion kinase family interacting protein of 200 kD (FIP200), endogenous (from UniProt Q8TDY2 1-1594)”: the binding entry (with flag-SETD2 (human); in assay [2]) was “binds” throughout.
